In article PMC10723793:
Residue numbers refer to the chain shown, from its start. Results are given in words; binding and its absence hold for the method and conditions named. Binding seen in cells or lysates may run through a third protein. Some entries that bind do so weakly or less than the wild type. Where a sequence is shown, tags or fusion partners need not be part of it.

Sequences of proteins named here, by UniProt entry; tags and fusion partners are left off.
UniProt Q5VSL9: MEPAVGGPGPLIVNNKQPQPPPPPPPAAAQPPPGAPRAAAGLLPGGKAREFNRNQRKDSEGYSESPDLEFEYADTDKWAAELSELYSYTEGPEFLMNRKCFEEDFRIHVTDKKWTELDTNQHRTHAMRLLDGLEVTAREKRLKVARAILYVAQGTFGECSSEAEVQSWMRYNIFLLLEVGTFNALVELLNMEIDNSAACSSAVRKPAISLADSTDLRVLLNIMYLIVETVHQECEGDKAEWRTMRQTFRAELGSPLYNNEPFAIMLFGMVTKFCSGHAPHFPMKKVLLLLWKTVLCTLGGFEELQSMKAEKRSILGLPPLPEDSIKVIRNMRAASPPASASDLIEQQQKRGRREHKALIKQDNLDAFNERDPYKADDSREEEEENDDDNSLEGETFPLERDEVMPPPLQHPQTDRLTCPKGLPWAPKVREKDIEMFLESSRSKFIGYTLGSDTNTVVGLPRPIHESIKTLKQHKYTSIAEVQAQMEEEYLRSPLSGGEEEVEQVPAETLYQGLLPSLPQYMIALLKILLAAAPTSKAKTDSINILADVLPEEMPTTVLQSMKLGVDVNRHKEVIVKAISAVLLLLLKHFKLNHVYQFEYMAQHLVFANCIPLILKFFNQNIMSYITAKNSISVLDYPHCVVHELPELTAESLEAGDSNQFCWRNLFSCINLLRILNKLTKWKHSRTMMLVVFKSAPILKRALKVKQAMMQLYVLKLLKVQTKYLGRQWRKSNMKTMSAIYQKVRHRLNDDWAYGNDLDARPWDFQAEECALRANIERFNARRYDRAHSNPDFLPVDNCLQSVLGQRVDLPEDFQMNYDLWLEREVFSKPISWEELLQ

Tests used:
Experiment in all cases: co-IP; anti-FLAG M2 antibody and protein G sepharose on 1 mg lysate of transfected HEK293T cells (1% IGEPAL CA-630, 50 mM Tris-HCl pH 7.5, 120 mM NaCl, 1 mM EDTA), overnight at 4 °C; endogenous partners detected by Western blot
[1] = target: T1, FLAG-Trabid R438W (human) (UniProt Q9UGI0)
T1 sequence: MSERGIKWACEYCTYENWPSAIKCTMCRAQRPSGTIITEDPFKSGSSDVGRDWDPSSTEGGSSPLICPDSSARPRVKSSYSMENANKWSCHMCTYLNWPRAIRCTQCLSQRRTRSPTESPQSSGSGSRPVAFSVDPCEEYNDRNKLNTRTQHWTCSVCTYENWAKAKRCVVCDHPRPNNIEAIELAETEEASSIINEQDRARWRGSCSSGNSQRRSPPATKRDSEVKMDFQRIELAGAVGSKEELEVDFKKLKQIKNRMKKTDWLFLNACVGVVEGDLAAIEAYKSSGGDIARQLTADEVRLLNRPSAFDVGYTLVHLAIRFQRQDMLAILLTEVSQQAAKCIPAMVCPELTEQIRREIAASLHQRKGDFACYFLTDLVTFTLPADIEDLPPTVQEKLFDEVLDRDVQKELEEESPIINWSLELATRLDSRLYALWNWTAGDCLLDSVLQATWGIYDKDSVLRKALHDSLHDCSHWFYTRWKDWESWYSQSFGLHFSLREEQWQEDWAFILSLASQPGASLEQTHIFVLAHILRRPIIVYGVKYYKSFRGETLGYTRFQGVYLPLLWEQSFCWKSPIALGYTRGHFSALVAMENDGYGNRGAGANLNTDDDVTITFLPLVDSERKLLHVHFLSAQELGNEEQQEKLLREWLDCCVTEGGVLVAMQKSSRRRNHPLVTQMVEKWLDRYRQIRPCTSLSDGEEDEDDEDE

[2] = target: T2, FLAG-Trabid C443S (human) (UniProt Q9UGI0)
T2 sequence: T1 sequence with W438R, C443S

[3] = target: T3, FLAG-Trabid wild-type (human) (UniProt Q9UGI0)
T3 sequence: T1 sequence with W438R

Measured: binding

STRIP1 (from UniProt Q5VSL9 1-837)
binds: all assays above

B1: Striatin3 (protein, UniProt Q13033 1-797)
chain: MDELAGGGGGGPGMAAPPRQQQGPGGNLGLSPGGNGAAGGGGPPASEGAGPAAGPELSRPQQYTIPGILHYIQHEWARFEMERAHWEVERAELQARIAFLQGERKGQENLKKDLVRRIKMLEYALKQERAKYHKLKYGTELNQGDLKMPTFESEETKDTEAPTAPQNSQLTWKQGRQLLRQYLQEVGYTDTILDVRSQRVRSLLGLSNSEPNGSVETKNLEQILNGGESPKQKGQEIKRSSGDVLETFNFLENADDSDEDEENDMIEGIPEGKDKHRMNKHKIGNEGLAADLTDDPDTEEALKEFDFLVTAEDGEGAGEARSSGDGTEWDKDDLSPTAEVWDVDQGLISKLKEQYKKERKGKKGVKRANRTKLYDMIADLGDDELPHIPSGIINQSRSASTRMTDHEGARAEEAEPITFPSGGGKSFIMGSDDVLLSVLGLGDLADLTVTNDADYSYDLPANKDAFRKTWNPKYTLRSHFDGVRALAFHPVEPVLVTASEDHTLKLWNLQKTVPAKKSASLDVEPIYTFRAHIGPVLSLAISSNGEQCFSGGIDATIQWWNMPSPSVDPYDTYEPNVLAGTLVGHTDAVWGLAYSGIKNQLLSCSADGTVRLWNPQEKLPCICTYNGDKKHGIPTSVDFIGCDPAHMVTSFNTGSAVIYDLETSQSLVILSSQVDSGLQSNNHINRVVSHPTLPVTITAHEDRHIKFFDNKTGKMIHSMVAHLDAVTSLAVDPNGIYLMSGSHDCSIRLWNLDSKTCVQEITAHRKKLDESIYDVAFHSSKAYIASAGADALAKVFV
binds: all assays above
